No constants are given. Whether binding was seen depends on the method and setting. In cells and extracts the contact can be indirect. Some results given as binding are weak or reduced against the parent protein; the word gives no strength. For some assays here: Sequences can lack the tags named with a protein.

The chains behind the UniProt entries cited, without tags or fusion partners. Where a name states a change or a piece, a line headed by the entry shows the natural chain unless it says otherwise.
UniProt Q14258: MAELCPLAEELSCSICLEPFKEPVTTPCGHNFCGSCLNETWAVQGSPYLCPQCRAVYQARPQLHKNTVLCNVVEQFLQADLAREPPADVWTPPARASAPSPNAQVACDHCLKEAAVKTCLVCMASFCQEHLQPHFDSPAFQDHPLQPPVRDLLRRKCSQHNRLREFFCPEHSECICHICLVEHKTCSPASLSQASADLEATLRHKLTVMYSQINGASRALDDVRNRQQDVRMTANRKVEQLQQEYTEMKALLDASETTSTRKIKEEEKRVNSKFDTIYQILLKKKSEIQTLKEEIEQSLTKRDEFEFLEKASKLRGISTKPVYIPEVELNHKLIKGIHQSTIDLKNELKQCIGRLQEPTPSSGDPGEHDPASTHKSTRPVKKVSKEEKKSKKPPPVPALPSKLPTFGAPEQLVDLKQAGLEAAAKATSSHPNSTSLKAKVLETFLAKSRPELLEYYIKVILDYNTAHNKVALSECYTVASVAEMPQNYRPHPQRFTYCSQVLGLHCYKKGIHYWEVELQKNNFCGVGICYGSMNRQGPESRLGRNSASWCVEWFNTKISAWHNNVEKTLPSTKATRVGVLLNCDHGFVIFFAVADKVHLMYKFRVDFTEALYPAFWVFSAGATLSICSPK
UniProt Q93009: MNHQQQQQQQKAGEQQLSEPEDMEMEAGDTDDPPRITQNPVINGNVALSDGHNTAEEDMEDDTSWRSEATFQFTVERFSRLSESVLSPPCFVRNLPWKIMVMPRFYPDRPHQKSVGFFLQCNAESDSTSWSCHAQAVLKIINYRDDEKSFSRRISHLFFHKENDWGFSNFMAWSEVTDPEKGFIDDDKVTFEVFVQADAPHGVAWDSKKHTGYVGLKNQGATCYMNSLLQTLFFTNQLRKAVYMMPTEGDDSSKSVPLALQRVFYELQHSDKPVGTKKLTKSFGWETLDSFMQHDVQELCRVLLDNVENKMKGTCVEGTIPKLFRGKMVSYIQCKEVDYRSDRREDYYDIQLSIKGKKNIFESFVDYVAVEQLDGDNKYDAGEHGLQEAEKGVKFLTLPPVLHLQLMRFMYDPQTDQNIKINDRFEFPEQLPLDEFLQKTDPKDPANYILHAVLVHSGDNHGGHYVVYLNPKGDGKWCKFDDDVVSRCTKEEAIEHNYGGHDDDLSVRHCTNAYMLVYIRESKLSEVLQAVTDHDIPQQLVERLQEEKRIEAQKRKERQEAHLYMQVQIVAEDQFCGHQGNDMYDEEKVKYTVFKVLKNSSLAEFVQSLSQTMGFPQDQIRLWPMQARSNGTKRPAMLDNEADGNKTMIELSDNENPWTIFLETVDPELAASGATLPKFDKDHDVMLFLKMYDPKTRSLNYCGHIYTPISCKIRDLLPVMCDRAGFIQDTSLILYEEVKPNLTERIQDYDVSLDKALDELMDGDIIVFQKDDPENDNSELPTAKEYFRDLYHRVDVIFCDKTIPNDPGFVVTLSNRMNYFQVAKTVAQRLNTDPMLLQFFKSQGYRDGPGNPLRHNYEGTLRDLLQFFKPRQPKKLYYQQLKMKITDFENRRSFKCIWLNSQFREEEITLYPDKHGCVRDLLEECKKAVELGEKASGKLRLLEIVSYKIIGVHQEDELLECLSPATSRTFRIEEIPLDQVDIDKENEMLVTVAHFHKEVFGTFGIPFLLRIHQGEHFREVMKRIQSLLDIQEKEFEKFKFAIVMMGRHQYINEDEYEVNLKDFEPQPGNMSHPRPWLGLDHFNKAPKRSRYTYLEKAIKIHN
UniProt Q9NRC8: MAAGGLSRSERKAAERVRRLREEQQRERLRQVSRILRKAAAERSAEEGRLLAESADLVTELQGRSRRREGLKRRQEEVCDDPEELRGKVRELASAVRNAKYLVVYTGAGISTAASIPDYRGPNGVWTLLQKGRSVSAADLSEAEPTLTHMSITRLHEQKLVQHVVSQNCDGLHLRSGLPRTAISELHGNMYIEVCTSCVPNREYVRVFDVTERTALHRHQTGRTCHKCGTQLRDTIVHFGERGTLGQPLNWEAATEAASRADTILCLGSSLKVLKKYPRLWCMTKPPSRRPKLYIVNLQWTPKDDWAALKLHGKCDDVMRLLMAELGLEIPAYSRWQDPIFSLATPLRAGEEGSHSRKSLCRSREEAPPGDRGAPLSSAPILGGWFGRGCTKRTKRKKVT
UniProt Q92793: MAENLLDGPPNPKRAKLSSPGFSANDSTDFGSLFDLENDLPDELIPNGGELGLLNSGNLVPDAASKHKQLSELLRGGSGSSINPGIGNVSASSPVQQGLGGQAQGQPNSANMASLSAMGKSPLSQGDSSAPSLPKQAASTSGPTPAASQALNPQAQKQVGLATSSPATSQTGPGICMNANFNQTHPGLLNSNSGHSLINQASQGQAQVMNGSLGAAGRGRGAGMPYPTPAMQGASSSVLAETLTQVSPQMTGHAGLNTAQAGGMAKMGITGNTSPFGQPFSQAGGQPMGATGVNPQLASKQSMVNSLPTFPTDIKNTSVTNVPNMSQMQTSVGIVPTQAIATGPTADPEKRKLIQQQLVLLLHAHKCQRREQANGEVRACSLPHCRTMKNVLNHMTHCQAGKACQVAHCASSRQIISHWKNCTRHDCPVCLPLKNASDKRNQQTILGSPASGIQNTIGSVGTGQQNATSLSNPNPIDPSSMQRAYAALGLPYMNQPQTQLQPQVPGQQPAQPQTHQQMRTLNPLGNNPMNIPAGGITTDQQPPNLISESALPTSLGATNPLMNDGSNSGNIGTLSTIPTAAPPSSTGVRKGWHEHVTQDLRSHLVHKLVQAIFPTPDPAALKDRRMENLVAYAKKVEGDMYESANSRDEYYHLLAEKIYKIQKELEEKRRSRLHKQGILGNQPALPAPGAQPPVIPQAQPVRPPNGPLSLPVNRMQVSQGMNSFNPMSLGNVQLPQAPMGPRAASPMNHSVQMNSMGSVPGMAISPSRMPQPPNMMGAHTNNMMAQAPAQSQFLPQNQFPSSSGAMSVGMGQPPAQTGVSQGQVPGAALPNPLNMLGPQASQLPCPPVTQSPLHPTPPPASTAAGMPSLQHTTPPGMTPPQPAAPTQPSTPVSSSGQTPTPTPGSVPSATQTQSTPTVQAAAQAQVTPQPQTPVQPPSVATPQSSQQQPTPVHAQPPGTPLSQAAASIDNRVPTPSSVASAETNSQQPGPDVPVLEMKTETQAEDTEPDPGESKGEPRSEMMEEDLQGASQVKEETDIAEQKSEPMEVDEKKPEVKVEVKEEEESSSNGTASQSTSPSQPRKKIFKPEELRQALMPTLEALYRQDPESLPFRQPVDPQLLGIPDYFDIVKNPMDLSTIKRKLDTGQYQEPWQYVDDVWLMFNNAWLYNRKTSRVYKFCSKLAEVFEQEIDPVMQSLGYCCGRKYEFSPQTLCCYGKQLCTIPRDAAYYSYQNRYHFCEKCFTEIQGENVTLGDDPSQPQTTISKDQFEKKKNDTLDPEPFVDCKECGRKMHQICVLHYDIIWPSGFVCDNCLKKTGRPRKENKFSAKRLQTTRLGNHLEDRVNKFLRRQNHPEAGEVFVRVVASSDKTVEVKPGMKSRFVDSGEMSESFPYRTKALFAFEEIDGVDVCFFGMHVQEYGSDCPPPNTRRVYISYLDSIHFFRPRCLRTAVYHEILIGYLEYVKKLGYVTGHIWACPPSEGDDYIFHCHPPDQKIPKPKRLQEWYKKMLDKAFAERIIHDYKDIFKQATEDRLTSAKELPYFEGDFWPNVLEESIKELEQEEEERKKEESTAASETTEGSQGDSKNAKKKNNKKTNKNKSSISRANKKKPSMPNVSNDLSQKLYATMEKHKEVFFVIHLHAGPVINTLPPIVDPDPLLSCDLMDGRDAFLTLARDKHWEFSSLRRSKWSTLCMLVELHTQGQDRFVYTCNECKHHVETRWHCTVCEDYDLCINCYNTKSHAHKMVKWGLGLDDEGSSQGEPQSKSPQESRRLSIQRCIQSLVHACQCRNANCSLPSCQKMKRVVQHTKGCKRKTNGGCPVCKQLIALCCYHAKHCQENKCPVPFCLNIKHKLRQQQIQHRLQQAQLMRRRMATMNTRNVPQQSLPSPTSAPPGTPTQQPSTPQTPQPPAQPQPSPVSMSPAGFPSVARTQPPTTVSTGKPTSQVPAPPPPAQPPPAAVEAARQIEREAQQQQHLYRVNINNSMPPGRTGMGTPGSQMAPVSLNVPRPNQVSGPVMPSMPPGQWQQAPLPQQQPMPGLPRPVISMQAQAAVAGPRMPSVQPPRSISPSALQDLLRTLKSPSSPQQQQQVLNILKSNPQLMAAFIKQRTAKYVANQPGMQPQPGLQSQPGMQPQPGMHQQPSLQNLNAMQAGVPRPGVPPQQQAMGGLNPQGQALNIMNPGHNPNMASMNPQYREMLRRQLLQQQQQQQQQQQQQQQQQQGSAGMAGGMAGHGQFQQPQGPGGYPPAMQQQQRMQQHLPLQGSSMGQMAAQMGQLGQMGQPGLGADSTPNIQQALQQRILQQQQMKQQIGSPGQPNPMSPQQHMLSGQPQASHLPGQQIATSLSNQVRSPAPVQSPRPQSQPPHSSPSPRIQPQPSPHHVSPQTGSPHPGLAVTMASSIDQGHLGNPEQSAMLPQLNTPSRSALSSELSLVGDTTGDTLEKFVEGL

Our source for the binding values is PMC12501092.

In test [1] the target is TRIM25-FLAG (UniProt Q14258). In words: co-IP; 293 T cells co-transfected with tagged plasmids; lysed in ice-cold IP lysate; anti-Flag or anti-HA magnetic beads; Western blot. On the technique in general: Immunoblotting shows a protein as a band on a membrane.
The target of test [2] is TRIM25-K392Q (UniProt Q14258). The experiment in a line: co-IP; A549 cells co-transfected with tagged plasmids; anti-Flag or anti-HA magnetic beads; Western blot.
For test [3], the target named is TRIM25-K392R (UniProt Q14258). The test is described as above.
Test [4] concerns the target TRIM25-FLAG (UniProt Q14258). Described as above.
Test [5] concerns the target TRIM25, endogenous (human (endogenous in A549 and H1299)) (UniProt Q14258). The experiment in a line: co-IP; endogenous proteins in A549 and H1299 (NSCLC) cell lysates; antibody-coupled protein A/G magnetic beads; Western blot.
Test [6] has as its target TRIM25 (tripartite motif containing 25), transfected, as co-expressed with CBP or SIRT7 (UniProt Q14258). The experiment in a line: co-IP; 293 T cells co-transfected with tagged plasmids; lysed in ice-cold IP lysate; anti-Flag or anti-HA magnetic beads; Western blot.
In test [7] the target is TRIM25-K392Q (UniProt Q14258). In words: co-IP; TRIM25-WT, -KR and -KQ each co-transfected with USP15; cell line not named in the legend; Western blot.
The target of test [8] is TRIM25-K392R (UniProt Q14258). The test is described as above.
In test [9] the target is TRIM25-FLAG (UniProt Q14258). The description is as above.
In test [10] the target is TRIM25-FLAG (UniProt Q14258). In words: co-IP; 293 T cells co-transfected with tagged plasmids; lysed in ice-cold IP lysate; anti-Flag or anti-HA magnetic beads; Western blot. This is another data set of the same source.

Regarding “USP7-HA (ubiquitin specific peptidase 7) (from UniProt Q93009 1-1102) (enzyme)”, the binding entry in test [1], in test [2], in [3] and in [4] was “binds” in each case.

On to “USP7, endogenous (from UniProt Q93009 1-1102) (enzyme)”, for which the binding result in test [5] was “binds”.

For the molecule “SIRT7, endogenous (from UniProt Q9NRC8 1-400) (enzyme)”, the binding result in test [5] is recorded as “binds”.

Take “cAMP-responsive element-binding (CREB)-binding protein (CBP), transfected (from UniProt Q92793 1-2442) (enzyme)”: the binding result in [6] is listed as “binds”.

Take “Sirtuin 7 (SIRT7), transfected (from UniProt Q9NRC8 1-400) (enzyme)”: in test [6], the binding result is given as “binds”.

For “CBP, endogenous (from UniProt Q92793 1-2442) (enzyme)”, the binding entry in test [5] was “binds”.

B1: USP15-HA (enzyme, UniProt Q9Y4E8 1-981)
chain: MAEGGAADLDTQRSDIATLLKTSLRKGDTWYLVDSRWFKQWKKYVGFDSWDKYQMGDQNVYPGPIDNSGLLKDGDAQSLKEHLIDELDYILLPTEGWNKLVSWYTLMEGQEPIARKVVEQGMFVKHCKVEVYLTELKLCENGNMNNVVTRRFSKADTIDTIEKEIRKIFSIPDEKETRLWNKYMSNTFEPLNKPDSTIQDAGLYQGQVLVIEQKNEDGTWPRGPSTPKSPGASNFSTLPKISPSSLSNNYNNMNNRNVKNSNYCLPSYTAYKNYDYSEPGRNNEQPGLCGLSNLGNTCFMNSAIQCLSNTPPLTEYFLNDKYQEELNFDNPLGMRGEIAKSYAELIKQMWSGKFSYVTPRAFKTQVGRFAPQFSGYQQQDCQELLAFLLDGLHEDLNRIRKKPYIQLKDADGRPDKVVAEEAWENHLKRNDSIIVDIFHGLFKSTLVCPECAKISVTFDPFCYLTLPLPMKKERTLEVYLVRMDPLTKPMQYKVVVPKIGNILDLCTALSALSGIPADKMIVTDIYNHRFHRIFAMDENLSSIMERDDIYVFEININRTEDTEHVIIPVCLREKFRHSSYTHHTGSSLFGQPFLMAVPRNNTEDKLYNLLLLRMCRYVKISTETEETEGSLHCCKDQNINGNGPNGIHEEGSPSEMETDEPDDESSQDQELPSENENSQSEDSVGGDNDSENGLCTEDTCKGQLTGHKKRLFTFQFNNLGNTDINYIKDDTRHIRFDDRQLRLDERSFLALDWDPDLKKRYFDENAAEDFEKHESVEYKPPKKPFVKLKDCIELFTTKEKLGAEDPWYCPNCKEHQQATKKLDLWSLPPVLVVHLKRFSYSRYMRDKLDTLVDFPINDLDMSEFLINPNAGPCRYNLIAVSNHYGGMGGGHYTAFAKNKDDGKWYYFDDSSVSTASEDQIVSKAAYVLFYQRQDTFSGTGFFPLDRETKGASAATGIPLESDEDSNDNDNDIENENCMHTN
With B1, the binding entry in [7], in test [8], in test [9], in [4] and in test [10] was “binds” in each case.
